Here are results for one molecule from patent US20120329834A1, “COMPOUNDS FOR THE TREATMENT OF MITOCHONDRIAL DISEASES” (CENTRE NATIONAL DE LA RECHERCHE SCIENTIFIQUE, priority 2009, published 2012).

Molecules are shown by their SMILES.

The test system of this test is ATP synthase yeast mutants MR14 (NARP T8993G) and MC6 (fmc1Δ). Nature of the test: Filter growth-halo test: restoration of respiratory growth of mutant yeasts on nonfermentable medium. The note with it: 2.5 μl/filter; compounds (Ia) 10 mg/ml, compounds A, B, C, D 5 mg/ml in DMSO; YPG medium; 35° C. MR14 or 36° C. MC6. Further details: key: +: the size and the density of said halo allow defining a qualitative value for activity; ++: the size and the density of said halo allow defining a qualitative value for activity; +++: the size and the density of said halo allow defining a qualitative value for activity. The format is cell-based. The text has this:
The ATP6 yeast mutants grow very slowly from a nonfermentable carbon source due to a dysfunction of the ATP synthase. These yeast mutants are therefore used to identify molecules capable of correcting the effects of the mutation by restoring either ATP synthase function, or ATP production by the mitochondria allowing the yeasts to grow on nonfermentable medium.
Mutant strains used in this experiment are: • MC6 (fmc1Δ) (Lefebvre-Legendre L. et al., J. Biol. Chem., 2001, March 2, 276 (9): 6789-96)
Genotype: MC6: Mat α, ade2, leu2, ura3, trp1, his3, fmc1::HIS3 • MR14 (NARP T8993G) which may be obtained according to International PCT Application WO 2007/125225.
The principle of the activity test is the following:
Step 1: the mutant yeast is cultured in medium containing glucose (YPAD medium). […]
In the morning, the optical density (OD) of the culture is measured; the culture is diluted in liquid YPAD medium (50 or 100 μl in 4 ml of medium if the broth is saturated).
After 4-5 h, OD of the culture is measured; the culture is diluted in YPG medium until the OD is 0.2. […]
Activity of the compounds is detected when mutant yeasts grow around the filters forming a growth halo; the size and the density of said halo allow defining a qualitative value for activity. […]

Consider `CC(C)(C)CC(C)(C)c1ccc(OCCOCC[N+](C)(C)Cc2ccccc2)cc1` [B- Benzethonium, Benzethonium chloride], for which the “activity (growth halo around the filter)” value was “++”.
